Results: PubChem BioAssay AID328 (DTP/NCI, 2004)
The list does not hold the whole screen: it is rich in T/C values a quarter to a half above the control, in often repeated tests (any T/C) and in doses without a T/C. Other doses and runs of a compound stand elsewhere. T/C gives the treated animals as a percentage of the vehicle group. Some entries give survivors of the animals treated and no T/C: the source files T/C as zero there, which appears to mark a toxic dose or a test without result, not a measured value. Some doses without a T/C left all or most animals alive at the check, yet need not have been tolerated: the source hardly ever lists a survival T/C far under the control, and the zero likely stands for such cases as well. Survivors were counted at the toxicity check, usually on the fifth day, unless a day is given; later deaths do not show. Schedule codes are those of the source, taken here to give the interval after Q, in days (D) or hours (H), and the number of doses after X. Some doses were run more than once; their values stand side by side, smallest first. Where survival is the endpoint, the PubChem record calls one and a half times the control and up active, and a quarter to a half above the control has no call in these data; cut-offs in other NCI protocols can differ. Additions like (4×) stand for listed records that agree.

Tested on: BDF1 mice, P388 leukemia ip, median survival T/C
Test: NCI In Vivo Anticancer Drug Screen. Data for tumor model P388 Leukemia (intraperitoneal) in B6D2F1 (BDF1) mice
Conditions: T/C endpoint: median survival time, higher T/C = longer survival
Summary of the method: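 Compound-treated tumour-bearing mice were compared with vehicle-treated controls. Survival was recorded, and the value is the treated-group measurement divided by the control-group measurement (T/C).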

[1] = dose: 50.0 mg/kg/injection, schedule: Q01DX009 (ip), vehicle: saline with Tween-80
[2] = dose: 100.0 mg/kg/injection, schedule: Q01DX009 (ip), vehicle: saline with Tween-80
[3] = dose: 200.0 mg/kg/injection, schedule: Q01DX009 (ip), vehicle: saline with Tween-80
[4] = dose: 50.0 mg/kg/injection, schedule: Q04DX003 (ip), vehicle: saline with Tween-80
[5] = dose: 100.0 mg/kg/injection, schedule: Q04DX003 (ip), vehicle: saline with Tween-80

N=C(N)c1ccc(-c2ccc(-c3ccc(C(=N)N)cc3)o2)cc1 was tested, and the T/C (dose: 12.5 mg/kg/injection, schedule: Q01DX009 (ip), vehicle: saline with Tween-80) was 125 % of control, the survivor count (dose: 25.0 mg/kg/injection, schedule: Q01DX009 (ip), vehicle: saline with Tween-80) was 6 of 6 and the survivor count [1] was 0 of 6. For the same compound, the survivor count [2] was 0 of 6 and the survivor count [3] was 0 of 6.

With c1cc[n+](CCSCCSCC[n+]2ccccc2)cc1 the T/C (dose: 4.6 mg/kg/injection, schedule: Q04DX003 (ip), vehicle: saline) was 127 % of control, the survivor count (dose: 6.9 mg/kg/injection, schedule: Q04DX003 (ip), vehicle: saline) was 3 of 6 and the survivor count (dose: 14.0 mg/kg/injection, schedule: Q01DX009 (ip), vehicle: saline) was 4 of 6. The survivor count (dose: 20.0 mg/kg/injection, schedule: Q04DX003 (ip), vehicle: saline) was 0 of 6, the survivor count (dose: 21.0 mg/kg/injection, schedule: Q01DX009 (ip), vehicle: saline) was 0 of 6 and the survivor count (dose: 30.0 mg/kg/injection, schedule: Q04DX003 (ip), vehicle: saline) was 1 of 6.

O=[N+]([O-])c1ccc(/C=N/c2ncc(Br)s2)o1 was tested, and the T/C [1] was 125 % of control, the T/C [4] was 127 % of control (2×) and the survivor count [4] was 5 of 6. For the same compound, the T/C [5] was 136 % of control, the survivor count [5] was 1 of 6 and the survivor count (dose: 200.0 mg/kg/injection, schedule: Q04DX003 (ip), vehicle: saline with Tween-80) was 0 of 6 and 3 of 6.

With O=C(C=C(C(F)(F)F)C(F)(F)F)c1cccc(C(F)(F)F)c1 the survivor count [4] was 4 of 6.

In the case of CCC(c1ccc2cc(OC)ccc2c1)C(C(=O)O)C(=O)O (stereo unspecified), the survivor count (dose: 100.0 mg/kg/injection, schedule: Q04DX003 (ip), vehicle: Klucel (hydroxypropylcellulose) (HPC)) is reported as 6 of 6 and the survivor count (dose: 200.0 mg/kg/injection, schedule: Q04DX003 (ip), vehicle: Klucel (hydroxypropylcellulose) (HPC)) is reported as 6 of 6.

With Cc1ccccc1NC=O the T/C [2] was 145 % of control and the T/C [3] was 145 % of control.

In the case of Cc1cccc(C)c1N=CNc1c(C)cccc1C.[Cu+2], the survivor count [2] is reported as 1 of 6.

With C/C=C(/C)C(=O)O[C@H]1CCN2CC=C(COC(=O)[C@@](O)([C@H](C)OC)C(C)(C)O)[C@H]12 the survivor count (dose: 50.0 mg/kg/injection, schedule: Q01DX010 (ip), vehicle: saline) was 6 of 6 and the survivor count (dose: 100.0 mg/kg/injection, schedule: Q01DX010 (ip), vehicle: saline) was 0 of 6.

O=C(O)CSc1cc(-c2ccc(Cl)cc2)s[s+]1 was tested, and the survivor count (dose: 25.0 mg/kg/injection, schedule: Q01DX009 (ip), vehicle: water) was 5 of 6 and the survivor count (dose: 32.0 mg/kg/injection, schedule: Q04DX003 (ip), vehicle: water) was 5 of 6.

For Cn1ccc(=O)c2cc([N+](=O)[O-])ccc21, the survivor count (dose: 200.0 mg/kg/injection, schedule: Q01DX009 (ip), vehicle: water) was 6 of 6 and the survivor count (dose: 400.0 mg/kg/injection, schedule: Q01DX009 (ip), vehicle: water) was 2 of 6.

With CCOC(C)C(/C=N/NC(N)=S)=NNC(N)=S (stereo unspecified) the T/C (dose: 100.0 mg/kg/injection, schedule: Q01DX009 (ip), vehicle: Klucel (hydroxypropylcellulose) (HPC)) was 127 and 135 % of control, the T/C (dose: 400.0 mg/kg/injection, schedule: Q01DX009 (ip), vehicle: Klucel (hydroxypropylcellulose) (HPC)) was 127 % of control and the survivor count (dose: 400.0 mg/kg/injection, schedule: Q04DX003 (ip), vehicle: saline with Tween-80) was 0 of 6.

With CCOC(=O)CN1CCC2CC1c1c([nH]c3ccccc13)C21OCCO1 (stereo unspecified) the survivor count (dose: 4.0 mg/kg/injection, schedule: Q01DX009 (ip), vehicle: saline) was 6 of 6, the survivor count (dose: 25.0 mg/kg/injection, schedule: Q01DX009 (ip), vehicle: saline) was 6 of 6 and the survivor count (dose: 50.0 mg/kg/injection, schedule: Q01DX009 (ip), vehicle: saline) was 6 of 6. For the same compound, the survivor count (dose: 100.0 mg/kg/injection, schedule: Q01DX009 (ip), vehicle: saline) was 6 of 6.
